Experimental findings from patent publication US7153535B2, “Protein sweetener” (Wisconsin Alumni Research Foundation, priority 2002, dated 2006) are described below.

In the series the test system is humans. As to the kind of experiment: human panel sweetness scoring on a labeled magnitude scale. The series is classed as in vivo. The conditions noted are these: 100 ug/ml of the protein in water. Here is the method:
To test the sweetness potency of SEQ ID NOS. 3 and 5, we tested the perception of sweetness using a concentration of 100 ug/ml of the protein in water. One test panel consisted of monkeys. The other test panel was of humans. The response measured in the monkeys was level of activity of taste nerve fibers during the stimulation of the tongue with different compounds being tested. Humans were requested to score the sweetness sensations of the stimuli with a magnitude labeled scale in accordance with the techniques of B. Green et al., 21 Chemical Senses 323 (1996) (e.g. barely detectable; weak; moderate; strong; very strong; strongest imaginable).

For the substance “D29K: Brazzein variant in which the Asp at position 29 is replaced with Lys (DKCKKVYENYPVSKCQLANQCNYDCKLKKHARSGECFYDEKRNLQCICDYCEY)”, the “taste as reported by human panel” value was “clean and pleasant”; the “taste quality indicated by human panel” value is reported as “purely sweet without detectable sourness, saltiness or bitterness”.

On to “D29N: Brazzein variant in which the Asp at position 29 is replaced with Asn (DKCKKVYENYPVSKCQLANQCNYDCKLNKHARSGECFYDEKRNLQCICDYCEY)”, for which the “taste as reported by human panel” value is “clean and pleasant”; the “taste quality indicated by human panel” value is “purely sweet without detectable sourness, saltiness or bitterness”.
